Assay results published in publication doi:10.1101/843821.
Results are given in words; binding and its absence hold for the method and conditions named. Some results given as binding are weak or reduced against the parent protein; the word gives no strength.

Biological target: T1, Mmp-RpoD (Methanococcus maripaludis (endogenous in strain S2)) (UniProt Q6LXM8)
T1 sequence: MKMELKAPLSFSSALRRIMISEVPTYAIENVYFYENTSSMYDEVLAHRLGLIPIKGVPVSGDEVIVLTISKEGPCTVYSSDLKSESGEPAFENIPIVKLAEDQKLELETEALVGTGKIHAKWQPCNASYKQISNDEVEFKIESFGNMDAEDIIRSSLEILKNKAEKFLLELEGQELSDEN
Test: SEC

B1: Mmp-aCPSF1 (enzyme, UniProt Q6LZD5 1-635)
chain: MSAEDILNEIKAAVINKAPGNAVITDVEFEGSEVVIYAKNPELFSNNLIKEFARDFRKRLAIRPDPSVLVEPDIAKDKILKIVPEDAEITNCIFDANTGEVIIESKKPGLVIGKEGSTLEDIKKAIQWAPKPVRTPPIPSDTIKAIRATMYRERADVKDILRRIGRRIHRDVRLRDDSWVRTSFLGGSREVGRTCLYHQTPESRILVDCGINIAVEDEKAFPHFDAPEFSIEEIDAVVVTHAHLDHCGFIPGLFRYGYDGPVYCTKPTRDLMTLLQKDYVDITEKEGKNVPYSSKDIKNCIKHTIPLDYGVTTDIAPAIKLTMHNAGHILGSAIAHCHVGDGLYNVAYTGDIKFEASRLLEPAVCQFPRLETLIIESTYGGYDDVLPERDETEKEFLRVIAETIARKGKAIIPVFGIGRAQELMLVLEEGYNQGIFNAPVYLDGMIWEATAIHTAYPEYLSKNMRNRIFHEGDNPFLSEVFKKVKNTNDRRNIMDSDEPGIILTTSGMLSGGPSVEYFKNLADDEKNSIVFVGYQSEGTLGRKIQKGFKEIPLMGKNGRSKAVKVNLSVHTLEGFSGHSDRKQLIKYLRKLKPIPDRILTVHGEVSKCIDLASTAYKLFKKETKAPMNLDSIRLR
  binding: binds
